Data as given in PubChem BioAssay AID1259405 (NCATS, 2018)

Aim: 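Knock-downs that lift recombinant protein yield in hamster ovary cells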 (primary screen)
Cells: Chinese hamster CHO-K1 ovary cells with stable secreted eGFP expression
Reagent: single siRNA against mouse genes, 0.8 pmol siRNA per well (2 µl of 400 nM stock)
Time to read-out: 3 days
Measured: 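Per-well intracellular GFP measured by laser scanning cytometry, plus viability from ATP luminescence, each relative to plate median of non-targeting control wells, in %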
Direction: GFP, % of control: higher = more GFP per well, higher productivity; viability (ATP), % of control: higher = more viable cells (more ATP)
Hit rule: 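a knock-down is called active if GFP reaches 120% or more of non-targeting control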
In all, the deposit lists about 50,000 reagents; this is a random part of them. Over the whole deposit, about 4,000 (8%) got an active call. 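Mouse siRNA library applied to hamster cells; one well for each siRNA.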 The numbers tell different reagents against one gene apart. Reagent sequences are not shown.

{"gene": "Or5d43 (olfactory receptor family 5 subfamily D member 43)", "reagent": 1, "GFP, % of control": 93.8, "viability (ATP), % of control": 67, "call": "inactive"}
{"gene": "Or5d43 (olfactory receptor family 5 subfamily D member 43)", "reagent": 2, "GFP, % of control": 124, "viability (ATP), % of control": 95.4, "call": "active"}
{"gene": "Or5d43 (olfactory receptor family 5 subfamily D member 43)", "reagent": 3, "GFP, % of control": 48, "viability (ATP), % of control": 56.4, "call": "inactive"}
{"gene": "Spry2 (sprouty RTK signaling antagonist 2)", "reagent": 1, "GFP, % of control": 127, "viability (ATP), % of control": 85.2, "call": "active"}
{"gene": "Spry2 (sprouty RTK signaling antagonist 2)", "reagent": 2, "GFP, % of control": 57, "viability (ATP), % of control": 50.9, "call": "inactive"}
{"gene": "Spry2 (sprouty RTK signaling antagonist 2)", "reagent": 3, "GFP, % of control": 45.6, "viability (ATP), % of control": 32.5, "call": "inactive"}
{"gene": "Oas1d (2'-5' oligoadenylate synthetase 1D)", "reagent": 1, "GFP, % of control": 120, "viability (ATP), % of control": 91.3, "call": "active"}
{"gene": "Oas1d (2'-5' oligoadenylate synthetase 1D)", "reagent": 2, "GFP, % of control": 66.1, "viability (ATP), % of control": 87.8, "call": "inactive"}
{"gene": "Oas1d (2'-5' oligoadenylate synthetase 1D)", "reagent": 3, "GFP, % of control": 54.7, "viability (ATP), % of control": 52.4, "call": "inactive"}
{"gene": "Zbtb7b (zinc finger and BTB domain containing 7B)", "reagent": 1, "GFP, % of control": 74.3, "viability (ATP), % of control": 86.3, "call": "inactive"}
{"gene": "Zbtb7b (zinc finger and BTB domain containing 7B)", "reagent": 2, "GFP, % of control": 63.4, "viability (ATP), % of control": 77.4, "call": "inactive"}
{"gene": "Or11g24 (olfactory receptor family 11 subfamily G member 24)", "reagent": 1, "GFP, % of control": 90.7, "viability (ATP), % of control": 27, "call": "inactive"}
{"gene": "Or11g24 (olfactory receptor family 11 subfamily G member 24)", "reagent": 2, "GFP, % of control": 86.4, "viability (ATP), % of control": 89.8, "call": "inactive"}
{"gene": "Or11g24 (olfactory receptor family 11 subfamily G member 24)", "reagent": 3, "GFP, % of control": 79.1, "viability (ATP), % of control": 64.2, "call": "inactive"}
{"gene": "Clec4a2 (C-type lectin domain family 4, member a2)", "reagent": 1, "GFP, % of control": 83.6, "viability (ATP), % of control": 56.5, "call": "inactive"}
{"gene": "Clec4a2 (C-type lectin domain family 4, member a2)", "reagent": 2, "GFP, % of control": 84.6, "viability (ATP), % of control": 77.8, "call": "inactive"}
{"gene": "Clec4a2 (C-type lectin domain family 4, member a2)", "reagent": 3, "GFP, % of control": 71.3, "viability (ATP), % of control": 94.5, "call": "inactive"}
{"gene": "Plaat1 (phospholipase A and acyltransferase 1)", "reagent": 1, "GFP, % of control": 113, "viability (ATP), % of control": 83.4, "call": "inactive"}
{"gene": "Plaat1 (phospholipase A and acyltransferase 1)", "reagent": 2, "GFP, % of control": 88.6, "viability (ATP), % of control": 75.4, "call": "inactive"}
{"gene": "Plaat1 (phospholipase A and acyltransferase 1)", "reagent": 3, "GFP, % of control": 132, "viability (ATP), % of control": 86, "call": "active"}

A run of entries taken from the entries so far, for reference:
{"gene": "Oas1d (2'-5' oligoadenylate synthetase 1D)", "reagent": 2, "GFP, % of control": 66.1, "viability (ATP), % of control": 87.8, "call": "inactive"}
{"gene": "Oas1d (2'-5' oligoadenylate synthetase 1D)", "reagent": 3, "GFP, % of control": 54.7, "viability (ATP), % of control": 52.4, "call": "inactive"}
{"gene": "Zbtb7b (zinc finger and BTB domain containing 7B)", "reagent": 1, "GFP, % of control": 74.3, "viability (ATP), % of control": 86.3, "call": "inactive"}
{"gene": "Zbtb7b (zinc finger and BTB domain containing 7B)", "reagent": 2, "GFP, % of control": 63.4, "viability (ATP), % of control": 77.4, "call": "inactive"}
{"gene": "Or11g24 (olfactory receptor family 11 subfamily G member 24)", "reagent": 1, "GFP, % of control": 90.7, "viability (ATP), % of control": 27, "call": "inactive"}

Continued:
{"gene": "Prkca (protein kinase C, alpha)", "reagent": 1, "GFP, % of control": 109, "viability (ATP), % of control": 64.4, "call": "inactive"}
{"gene": "Prkca (protein kinase C, alpha)", "reagent": 2, "GFP, % of control": 89, "viability (ATP), % of control": 91.5, "call": "inactive"}
{"gene": "Prkca (protein kinase C, alpha)", "reagent": 3, "GFP, % of control": 121, "viability (ATP), % of control": 98.3, "call": "active"}
{"gene": "Mob4 (MOB family member 4, phocein)", "reagent": 1, "GFP, % of control": 84.5, "viability (ATP), % of control": 81.6, "call": "inactive"}
{"gene": "Mob4 (MOB family member 4, phocein)", "reagent": 2, "GFP, % of control": 106, "viability (ATP), % of control": 98, "call": "inactive"}
{"gene": "Scyl3 (SCY1-like 3 (S. cerevisiae))", "reagent": 1, "GFP, % of control": 59.5, "viability (ATP), % of control": 79.3, "call": "inactive"}
{"gene": "Scyl3 (SCY1-like 3 (S. cerevisiae))", "reagent": 2, "GFP, % of control": 80.9, "viability (ATP), % of control": 94.7, "call": "inactive"}
{"gene": "Scyl3 (SCY1-like 3 (S. cerevisiae))", "reagent": 3, "GFP, % of control": 70.5, "viability (ATP), % of control": 106, "call": "inactive"}
{"gene": "Papln (papilin, proteoglycan-like sulfated glycoprotein)", "reagent": 1, "GFP, % of control": 26.5, "viability (ATP), % of control": 31.2, "call": "inactive"}
{"gene": "Papln (papilin, proteoglycan-like sulfated glycoprotein)", "reagent": 2, "GFP, % of control": 87.7, "viability (ATP), % of control": 81.4, "call": "inactive"}
{"gene": "Papln (papilin, proteoglycan-like sulfated glycoprotein)", "reagent": 3, "GFP, % of control": 88.2, "viability (ATP), % of control": 102, "call": "inactive"}
{"gene": "F830005K03Rik (RIKEN cDNA F830005K03 gene)", "reagent": 1, "GFP, % of control": 50.2, "viability (ATP), % of control": 53.8, "call": "inactive"}
{"gene": "F830005K03Rik (RIKEN cDNA F830005K03 gene)", "reagent": 2, "GFP, % of control": 72.9, "viability (ATP), % of control": 90.1, "call": "inactive"}
{"gene": "F830005K03Rik (RIKEN cDNA F830005K03 gene)", "reagent": 3, "GFP, % of control": 83.5, "viability (ATP), % of control": 78.5, "call": "inactive"}
{"gene": "Prkab1 (protein kinase, AMP-activated, beta 1 non-catalytic subunit)", "reagent": 1, "GFP, % of control": 72.6, "viability (ATP), % of control": 91.9, "call": "inactive"}
{"gene": "Prkab1 (protein kinase, AMP-activated, beta 1 non-catalytic subunit)", "reagent": 2, "GFP, % of control": 111, "viability (ATP), % of control": 99.1, "call": "inactive"}
{"gene": "Cdipt (CDP-diacylglycerol--inositol 3-phosphatidyltransferase)", "reagent": 1, "GFP, % of control": 135, "viability (ATP), % of control": 108, "call": "active"}
{"gene": "Cdipt (CDP-diacylglycerol--inositol 3-phosphatidyltransferase)", "reagent": 2, "GFP, % of control": 75.6, "viability (ATP), % of control": 116, "call": "inactive"}
{"gene": "Cdipt (CDP-diacylglycerol--inositol 3-phosphatidyltransferase)", "reagent": 3, "GFP, % of control": 116, "viability (ATP), % of control": 95.1, "call": "inactive"}
{"gene": "Chgb (chromogranin B)", "reagent": 1, "GFP, % of control": 47.8, "viability (ATP), % of control": 46.5, "call": "inactive"}
{"gene": "Chgb (chromogranin B)", "reagent": 2, "GFP, % of control": 39.1, "viability (ATP), % of control": 28.5, "call": "inactive"}
{"gene": "Chgb (chromogranin B)", "reagent": 3, "GFP, % of control": 89.8, "viability (ATP), % of control": 72.2, "call": "inactive"}
